Results are given in words; binding and its absence hold for the method and conditions named. Binding seen in cells or lysates may run through a third protein. A yes stands for co-enrichment or nearness to the bait. Other partners may have been found. For part of these data: Sequences can lack the tags named with a protein.
T1: S/FLAG/SBP tagged AIMP2, Q13155
T1 chain: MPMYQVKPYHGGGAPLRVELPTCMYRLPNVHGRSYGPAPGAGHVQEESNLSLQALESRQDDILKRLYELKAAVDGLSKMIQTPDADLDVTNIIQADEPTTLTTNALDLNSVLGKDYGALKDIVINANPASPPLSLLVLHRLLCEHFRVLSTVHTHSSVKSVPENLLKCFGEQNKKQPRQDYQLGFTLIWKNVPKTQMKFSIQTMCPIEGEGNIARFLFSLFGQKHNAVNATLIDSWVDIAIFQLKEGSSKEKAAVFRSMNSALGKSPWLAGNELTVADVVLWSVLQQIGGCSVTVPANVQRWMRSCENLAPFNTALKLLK

T2: S/FLAG/SBP tagged AIMP1, Q12904
T2 chain: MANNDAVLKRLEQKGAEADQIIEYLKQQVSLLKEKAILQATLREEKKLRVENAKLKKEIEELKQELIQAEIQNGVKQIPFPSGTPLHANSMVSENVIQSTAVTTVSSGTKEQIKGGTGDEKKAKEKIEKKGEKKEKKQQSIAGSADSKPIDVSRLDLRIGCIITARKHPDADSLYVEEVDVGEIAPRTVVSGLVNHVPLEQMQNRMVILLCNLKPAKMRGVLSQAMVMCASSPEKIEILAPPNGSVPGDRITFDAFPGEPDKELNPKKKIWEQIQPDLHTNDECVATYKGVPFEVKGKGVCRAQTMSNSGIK


Columns and labels:
Assay in all cases: affinity purification with mass spectrometry; S/FLAG/SBP-tagged bait transiently expressed in HEK 293T and HCT-8 cells; 2 mg lysate protein in NETN buffer (20 mM Tris-HCl pH 7.4, 1 mM EDTA, 150 mM NaCl, 0.5% Nonidet P-40) on streptavidin agarose, 2 h, 4 °C; eluted with biotin; in-gel digestion, LC-MS/MS; SAINT probability 0.9 or above against a mock vector with the tag only; three biological replicates
Settings in all cases: remark: other sources report otherwise
[1] = molecular target: T1, S/FLAG/SBP tagged AIMP2, Q13155
[2] = molecular target: S/FLAG/SBP tagged KARS, Q15046
[3] = molecular target: T2, S/FLAG/SBP tagged AIMP1, Q12904

| binding [1] | binding [2] | binding [3] | Binder |
| --- | --- | --- | --- |
| binds | binds | binds | Aspartyl-tRNA synthetase, P14868 1-501 (enzyme) MPSASASRKSQEKPREIMDAAEDYAKERYGISSMIQSQEKPDRVLVRVRDLTIQKADEVVWVRARVHTSRAKGKQCFLVLRQQQFNVQALVAVGDHASKQMVKFAANINKESIVDVEGVVRKVNQKIGSCTQQDVELHVQKIYVISLAEPRLPLQLDDAVRPEAEGEEEGRATVNQDTRLDNRVIDLRTSTSQAVFRLQSGICHLFRETLINKGFVEIQTPKIISAASEGGANVFTVSYFKNNAYLAQSPQLYKQMCICADFEKVFSIGPVFRAEDSNTHRHLTEFVGLDIEMAFNYHYHEVMEEIADTMVQIFKGLQERFQTEIQTVNKQFPCEPFKFLEPTLRLEYCEALAMLREAGVEMGDEDDLSTPNEKLLGHLVKEKYDTDFYILDKYPLAVRPFYTMPDPRNPKQSNSYDMFMRGEEILSGAQRIHDPQLLTERALHHGIDLEKIKAYIDSFRFGAPPHAGGGIGLERVTMLFLGLHNVRQTSMFPRDPKRLTP |
| binds | binds | binds | Arginyl-tRNA synthetase, P54136 1-660 (enzyme) MDVLVSECSARLLQQEEEIKSLTAEIDRLKNCGCLGASPNLEQLQEENLKLKYRLNILRKSLQAERNKPTKNMINIISRLQEVFGHAIKAAYPDLENPPLLVTPSQQAKFGDYQCNSAMGISQMLKTKEQKVNPREIAENITKHLPDNECIEKVEIAGPGFINVHLRKDFVSEQLTSLLVNGVQLPALGENKKVIVDFSSPNIAKEMHVGHLRSTIIGESISRLFEFAGYDVLRLNHVGDWGTQFGMLIAHLQDKFPDYLTVSPPIGDLQVFYKESKKRFDTEEEFKKRAYQCVVLLQGKNPDITKAWKLICDVSRQELNKIYDALDVSLIERGESFYQDRMNDIVKEFEDRGFVQVDDGRKIVFVPGCSIPLTIVKSDGGYTYDTSDLAAIKQRLFEEKADMIIYVVDNGQSVHFQTIFAAAQMIGWYDPKVTRVFHAGFGVVLGEDKKKFKTRSGETVRLMDLLGEGLKRSMDKLKEKERDKVLTAEELNAAQTSVAYGCIKYADLSHNRLNDYIFSFDKMLDDRGNTAAYLLYAFTRIRSIARLANIDEEMLQKAARETKILLDHEKEWKLGRCILRFPEILQKILDDLFLHTLCDYIYELATAFTEFYDSCYCVEKDRQTGKILKVNMWRMLLCEAVAAVMAKGFDILGIKPVQRM |

— article PMC3846882
